Primary screen of a compound library

Data taken from ChEMBL document CHEMBL3988442, “University of Dundee, Small-Polar-MMV Screening Library” (2021).

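Viability assay of Plasmodium falciparum sporozoites; the read-out is not stated. The concentration is filed as 10 mM, unlikely as a test dose, so the dose is not known. Direction is inferred from retests: higher values go with lower viability. Strong results were mostly tested again. Size under these conditions: about 34,000 compounds, about 280 of them at 50% or above in at least one test.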

The filed quantity is “Percent Effect” (%).
The controls that fix the scale are not given in the record; negative values are as filed.
The compounds are a random part of those screened.
Two or more numbers in one place are separate tests of the same structure; such repeats can differ widely.

Compound: [H][C@@]12CS(=O)(=O)C[C@]1([H])N(Cc1cccc(C)n1)CCN2C(=O)N(C)C
percent effect: -6.946

Compound: O=C(O)C(F)(F)F.O=C(O)C(F)(F)F.O=C(O)C(F)(F)F.[H][C@@]12CCC(=O)N(Cc3cccc(C)n3)[C@]1([H])CCN2Cc1nccn1C
percent effect: 25.42

Compound: O=S(=O)(CC1CCOCC1)NCc1ccnc(O)c1
percent effect: -15.68

Compound: Cc1nc(C)n(CC2CCCN(Cc3nc(C)c(C)o3)C2)n1 (centres unmarked)
percent effect: 7.84

Compound: COCc1ccc(C(=O)NCCCNc2ccc(C(F)(F)F)cn2)cc1
percent effect: 13.52

Compound: O=C(CCc1ccccc1)N1CCCC(c2n[nH]c3nccnc23)C1 (centres unmarked)
percent effect: -9.29

Compound: O=C(c1ccc2c(c1)CCCC2)N1CCCC(n2cncn2)C1 (centres unmarked)
percent effect: -1.899

Compound: O=C(Cc1cccc(F)c1)NCCNc1ncccn1
percent effect: -12.48

Compound: COc1cccc(S(=O)(=O)N2CCn3cnc(COCC4CC4)c3C2)c1
percent effect: -5.519

Compound: Cc1ccc(-c2nc(CN3CCCCC3Cn3cncn3)no2)cc1 (centres unmarked)
percent effect: 13.93

Compound: CC(=O)N1N=C(COc2ccc3c(c2)OCO3)OC1c1ccc(C)cc1 (centres unmarked)
percent effect: -14.99

Compound: CN1CCn2nc(-c3nc4ccccc4n3C)cc2C1
percent effect: 21.76 & 43.98

Compound: Cc1c(Br)cccc1C(=O)NC(C)CN1CCCC1=O (centres unmarked)
percent effect: -13.58

Compound: Cc1nc(N2CCOCC2)nc2c1CCN(C(=O)C1(C#N)CC1)CC2
percent effect: 3.322

Compound: Cc1cc(C)n(C2CCCN(C(=O)Cc3ccc(C#N)cc3)C2)n1 (centres unmarked)
percent effect: 8.84

Compound: O=C(c1cn(-c2ccccc2Cl)nn1)N1CCCSCC1
percent effect: -20.23 & -8.98 & 69.67

Compound: CC(C)OCC(=O)N1CCCN(Cc2ccc(C#N)cc2)CC1
percent effect: -1.484

Compound: CN(C)C(=O)CO[C@H]1CO[C@@]2(CCN(Cc3ccsc3)C2)C1.O=C(O)C(F)(F)F
percent effect: -8.944

Compound: Cc1ccc(C)c(OCc2nnc(SCC3CCCN(C)C3)o2)c1 (centres unmarked)
percent effect: -13.26

Compound: CN(C)C(=O)COCC1CN(CC2CCOCC2)Cc2ncn(C)c21 (centres unmarked)
percent effect: 1.491

Compound: OCCc1ncnn1Cc1cccc(Cl)c1
percent effect: 1.99

Compound: Cc1nc(CN(C)c2nc3c(cnn3C(C)(C)C)c(=O)[nH]2)cs1
percent effect: 0.1112

Compound: [H][C@]12C[C@H](C(=O)NCC3CC3)N(C)[C@@]1([H])CN(Cc1ccco1)C2
percent effect: 10.6

Compound: CCOCCN1CCN(Cc2csc(-c3cnn(C)c3)n2)CC1
percent effect: 8.11

Compound: CCCNc1ccc(C(=O)NCCc2cccc(OC)c2)cn1
percent effect: -27.21

Compound: CCN(Cc1ccoc1)C(=O)c1cc2c(c(S(N)(=O)=O)c1)CCC2
percent effect: 9.358

Compound: Cn1nnc2c1CCN(Cc1ccccc1)C2COCC1CC1 (centres unmarked)
percent effect: 0.8074

Compound: CN(C)c1nccc(-c2c[nH][nH]c2=O)n1
percent effect: 9.907

Compound: O=C(COC1CCCC1)Nc1ncn(CC(=O)N2CCCCCC2)n1
percent effect: 5.681

Compound: COCCN(Cc1nc2c(cnn2C)c(=O)[nH]1)C(C)c1ccccc1 (centres unmarked)
percent effect: 4.959

Compound: COc1ccc(C2=CNC(C(F)(F)F)=CC2N)cc1 (centres unmarked)
percent effect: -2.584

Compound: O=C(c1nn(-c2ccccc2F)cc1O)N1CCCSCC1
percent effect: -1.248

Compound: Cl.Cl.Cl.c1cnc(NCc2cncc3c2CCN(Cc2cccnc2)C3)nc1
percent effect: 15.82

Compound: Cc1cnn(CC2CCCN2C(=O)c2cnc(-c3ccco3)s2)c1 (centres unmarked)
percent effect: 1.394

Compound: O=c1c(-c2ccnc(N3CCC[C@H]3CO)n2)cnc2sccn12
percent effect: -6.351

Compound: O=C1NCC(C(=O)Nc2ncc(Cc3cccc(F)c3)s2)N1 (centres unmarked)
percent effect: 2.69

Compound: Cc1cnn(C2CN(CC(=O)NCCCc3ccccc3)C2)c1
percent effect: 6.373

Compound: NC(=O)C1CCN(C(=O)c2cccc(OCc3cscn3)c2)CC1
percent effect: -6.441

Compound: CCc1n[nH]c(C2CN(C(=O)c3cnc(C)cn3)CCO2)n1 (centres unmarked)
percent effect: -13.6

Compound: CCCc1cc(NC(=O)c2ccc(Cl)c(N3CCNC3=O)c2)n[nH]1
percent effect: -13.87

Compound: COCCN1CCc2c(cnc(-c3ccccc3)c2C(=O)O)C1.O=C(O)C(F)(F)F
percent effect: -4.38

Compound: CC(=O)N[C@@H]1CN(Cc2nc3ccccc3[nH]2)C[C@H]1c1ccc(C)o1
percent effect: 0.3509

Compound: Cc1ccccc1CSc1nc(N)cc(N2CC[C@@H](O)C2)n1
percent effect: -6.459

Compound: Cc1nc(C2CCCN(C(=O)c3ccoc3)C2)no1 (centres unmarked)
percent effect: -5.402

Compound: O=C(O)C(F)(F)F.O=C(O)C(F)(F)F.[H][C@]12CCN(c3cccc(C)n3)C[C@@]1([H])OCCN(Cc1csc(C)n1)C2
percent effect: 2.125

Compound: CN(Cc1n[nH]c2c1CCCC2)c1nc2c(c(=O)[nH]1)CCNCC2
percent effect: -6

Compound: O=C(O)C(F)(F)F.[H][C@@]12CCN(c3ncc(F)cn3)[C@]1([H])CC[C@H](C(=O)NCc1ccco1)O2
percent effect: -14.6

Compound: O=C(O)C(F)(F)F.[H][C@@]12COC[C@]1(C(=O)NC(C)C)CN(Cc1scnc1C)C2
percent effect: 9.115

Compound: CCC(=O)N1CCN(C)C(=O)C(Cc2ccccc2-c2cccs2)C1 (centres unmarked)
percent effect: 14.74

Compound: COCc1nc(CNC2CCCc3c2cnn3C(C)(C)C)cs1 (centres unmarked)
percent effect: 80.27 & 81.73

Compound: COc1ccc(C(=O)N2CCOc3ccncc32)cc1
percent effect: -7.193

Compound: Cc1cccc(NC(=O)N2CCN(Cc3noc(C4CC4)n3)CC2)c1
percent effect: -3.567

Compound: CS(=O)(=O)N[C@@H]1CCN(Cc2ccncc2)[C@H]1Cc1cccnc1
percent effect: 2.525

Compound: CSc1nccc(N2CCC3(CCCN(Cc4ccc(F)cc4)C3)C2)n1 (centres unmarked)
percent effect: -9.948

Repeated from the top, 7 entries:

| Compound | percent effect |
|---|---|
| `[H][C@@]12CS(=O)(=O)C[C@]1([H])N(Cc1cccc(C)n1)CCN2C(=O)N(C)C` | -6.946 |
| `O=C(O)C(F)(F)F.O=C(O)C(F)(F)F.O=C(O)C(F)(F)F.[H][C@@]12CCC(=O)N(Cc3cccc(C)n3)[C@]1([H])CCN2Cc1nccn1C` | 25.42 |
| `O=S(=O)(CC1CCOCC1)NCc1ccnc(O)c1` | -15.68 |
| `Cc1nc(C)n(CC2CCCN(Cc3nc(C)c(C)o3)C2)n1` (centres unmarked) | 7.84 |
| `COCc1ccc(C(=O)NCCCNc2ccc(C(F)(F)F)cn2)cc1` | 13.52 |
| `O=C(CCc1ccccc1)N1CCCC(c2n[nH]c3nccnc23)C1` (centres unmarked) | -9.29 |
| `O=C(c1ccc2c(c1)CCCC2)N1CCCC(n2cncn2)C1` (centres unmarked) | -1.899 |